Laboratory results reported in the supplement of paper PMC12067093, “Discovery and optimisation of a covalent ligand for TRIM25 and its application to targeted protein ubiquitination” (Chemical Science, 2025).
This is one part of the list.

By UniProt entry, the sequences of proteins in these tests, tags left out. Where a name states a change or a piece, a line headed by the entry shows the natural chain unless it says otherwise.
UniProt Q5W0V3: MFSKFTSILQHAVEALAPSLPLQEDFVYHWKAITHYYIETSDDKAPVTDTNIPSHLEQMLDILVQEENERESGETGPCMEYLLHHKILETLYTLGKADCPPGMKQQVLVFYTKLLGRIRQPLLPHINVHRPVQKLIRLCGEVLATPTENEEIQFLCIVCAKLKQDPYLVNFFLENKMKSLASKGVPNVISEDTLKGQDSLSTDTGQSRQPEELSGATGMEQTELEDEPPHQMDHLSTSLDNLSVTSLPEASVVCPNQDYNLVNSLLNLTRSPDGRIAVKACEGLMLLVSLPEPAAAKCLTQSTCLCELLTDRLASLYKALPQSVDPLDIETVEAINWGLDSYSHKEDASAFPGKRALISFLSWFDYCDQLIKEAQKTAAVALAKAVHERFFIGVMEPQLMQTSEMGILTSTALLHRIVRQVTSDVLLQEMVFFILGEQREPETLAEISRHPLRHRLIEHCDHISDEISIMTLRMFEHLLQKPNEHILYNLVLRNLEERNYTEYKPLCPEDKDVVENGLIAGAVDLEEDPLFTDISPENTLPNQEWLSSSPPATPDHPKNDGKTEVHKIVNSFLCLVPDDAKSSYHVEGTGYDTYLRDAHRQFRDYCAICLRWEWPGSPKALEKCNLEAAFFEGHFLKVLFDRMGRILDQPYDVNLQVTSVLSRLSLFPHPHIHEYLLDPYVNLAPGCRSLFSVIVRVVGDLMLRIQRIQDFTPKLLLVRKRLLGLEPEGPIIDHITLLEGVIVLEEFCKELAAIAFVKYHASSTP
UniProt Q9NW38: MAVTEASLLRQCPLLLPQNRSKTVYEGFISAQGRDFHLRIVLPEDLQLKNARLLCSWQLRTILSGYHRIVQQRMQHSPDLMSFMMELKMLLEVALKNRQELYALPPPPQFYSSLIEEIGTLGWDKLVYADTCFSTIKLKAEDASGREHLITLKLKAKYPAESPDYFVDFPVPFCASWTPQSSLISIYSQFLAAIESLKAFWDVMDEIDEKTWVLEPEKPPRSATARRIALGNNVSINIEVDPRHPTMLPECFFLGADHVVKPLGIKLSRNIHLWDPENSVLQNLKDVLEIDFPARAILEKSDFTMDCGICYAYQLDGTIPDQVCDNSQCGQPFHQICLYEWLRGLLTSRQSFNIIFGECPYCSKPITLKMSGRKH
UniProt Q9UK61: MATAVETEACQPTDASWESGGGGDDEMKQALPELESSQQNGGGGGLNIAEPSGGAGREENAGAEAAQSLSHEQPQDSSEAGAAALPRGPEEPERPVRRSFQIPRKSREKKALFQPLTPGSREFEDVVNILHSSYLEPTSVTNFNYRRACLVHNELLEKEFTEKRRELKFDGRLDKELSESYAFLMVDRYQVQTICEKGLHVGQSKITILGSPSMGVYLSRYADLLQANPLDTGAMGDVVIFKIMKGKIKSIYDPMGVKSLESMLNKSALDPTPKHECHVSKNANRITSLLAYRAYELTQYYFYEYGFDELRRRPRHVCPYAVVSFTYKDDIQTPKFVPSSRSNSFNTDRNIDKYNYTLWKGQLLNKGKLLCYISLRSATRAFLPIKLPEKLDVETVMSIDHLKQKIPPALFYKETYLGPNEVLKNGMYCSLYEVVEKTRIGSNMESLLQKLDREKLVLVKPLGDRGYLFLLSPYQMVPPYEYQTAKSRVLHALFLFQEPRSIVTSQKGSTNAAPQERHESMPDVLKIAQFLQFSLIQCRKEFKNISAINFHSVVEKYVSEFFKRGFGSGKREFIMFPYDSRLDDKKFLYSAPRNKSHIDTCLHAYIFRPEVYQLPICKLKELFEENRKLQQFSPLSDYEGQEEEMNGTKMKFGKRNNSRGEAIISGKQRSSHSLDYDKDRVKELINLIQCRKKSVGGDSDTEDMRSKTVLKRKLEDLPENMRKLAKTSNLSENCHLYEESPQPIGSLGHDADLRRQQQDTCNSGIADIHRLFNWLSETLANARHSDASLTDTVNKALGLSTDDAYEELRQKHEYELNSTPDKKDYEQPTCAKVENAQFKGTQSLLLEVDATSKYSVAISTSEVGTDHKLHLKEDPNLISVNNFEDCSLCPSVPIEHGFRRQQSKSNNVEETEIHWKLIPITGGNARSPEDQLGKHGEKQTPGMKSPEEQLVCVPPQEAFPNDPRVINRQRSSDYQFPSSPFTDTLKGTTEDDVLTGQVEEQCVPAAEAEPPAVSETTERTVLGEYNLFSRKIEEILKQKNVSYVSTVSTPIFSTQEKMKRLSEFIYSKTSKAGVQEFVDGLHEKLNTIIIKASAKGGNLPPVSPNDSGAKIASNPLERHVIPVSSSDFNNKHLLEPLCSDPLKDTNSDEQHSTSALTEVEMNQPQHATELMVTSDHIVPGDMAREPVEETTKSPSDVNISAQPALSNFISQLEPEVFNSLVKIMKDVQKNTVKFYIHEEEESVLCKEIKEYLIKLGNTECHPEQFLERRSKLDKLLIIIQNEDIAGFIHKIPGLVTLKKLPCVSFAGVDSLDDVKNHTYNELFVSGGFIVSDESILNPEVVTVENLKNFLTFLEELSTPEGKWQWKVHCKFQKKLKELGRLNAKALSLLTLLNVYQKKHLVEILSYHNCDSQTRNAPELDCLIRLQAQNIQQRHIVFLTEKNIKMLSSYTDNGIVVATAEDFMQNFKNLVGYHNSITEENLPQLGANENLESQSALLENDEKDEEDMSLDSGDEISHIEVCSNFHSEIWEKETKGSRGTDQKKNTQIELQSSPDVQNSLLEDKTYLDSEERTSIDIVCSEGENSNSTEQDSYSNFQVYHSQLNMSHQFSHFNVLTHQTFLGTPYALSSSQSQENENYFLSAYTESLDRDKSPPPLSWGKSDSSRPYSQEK
UniProt Q9NSD9: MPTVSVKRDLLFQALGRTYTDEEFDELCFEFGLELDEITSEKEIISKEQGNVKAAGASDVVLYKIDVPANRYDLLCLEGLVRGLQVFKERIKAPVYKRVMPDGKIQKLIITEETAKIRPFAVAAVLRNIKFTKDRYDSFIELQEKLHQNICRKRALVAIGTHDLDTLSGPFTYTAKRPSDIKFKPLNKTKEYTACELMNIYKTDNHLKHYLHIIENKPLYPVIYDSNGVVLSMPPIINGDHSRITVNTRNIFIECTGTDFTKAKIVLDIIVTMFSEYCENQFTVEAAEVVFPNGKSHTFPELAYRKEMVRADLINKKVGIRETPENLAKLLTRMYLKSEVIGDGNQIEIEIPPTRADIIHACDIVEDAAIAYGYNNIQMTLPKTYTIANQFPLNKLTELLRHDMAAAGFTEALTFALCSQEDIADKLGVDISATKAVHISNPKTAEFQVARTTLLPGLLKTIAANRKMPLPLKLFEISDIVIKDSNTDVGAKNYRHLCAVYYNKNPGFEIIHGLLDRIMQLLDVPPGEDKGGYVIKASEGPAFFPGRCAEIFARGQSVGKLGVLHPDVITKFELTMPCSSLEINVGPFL
UniProt Q9BXW9: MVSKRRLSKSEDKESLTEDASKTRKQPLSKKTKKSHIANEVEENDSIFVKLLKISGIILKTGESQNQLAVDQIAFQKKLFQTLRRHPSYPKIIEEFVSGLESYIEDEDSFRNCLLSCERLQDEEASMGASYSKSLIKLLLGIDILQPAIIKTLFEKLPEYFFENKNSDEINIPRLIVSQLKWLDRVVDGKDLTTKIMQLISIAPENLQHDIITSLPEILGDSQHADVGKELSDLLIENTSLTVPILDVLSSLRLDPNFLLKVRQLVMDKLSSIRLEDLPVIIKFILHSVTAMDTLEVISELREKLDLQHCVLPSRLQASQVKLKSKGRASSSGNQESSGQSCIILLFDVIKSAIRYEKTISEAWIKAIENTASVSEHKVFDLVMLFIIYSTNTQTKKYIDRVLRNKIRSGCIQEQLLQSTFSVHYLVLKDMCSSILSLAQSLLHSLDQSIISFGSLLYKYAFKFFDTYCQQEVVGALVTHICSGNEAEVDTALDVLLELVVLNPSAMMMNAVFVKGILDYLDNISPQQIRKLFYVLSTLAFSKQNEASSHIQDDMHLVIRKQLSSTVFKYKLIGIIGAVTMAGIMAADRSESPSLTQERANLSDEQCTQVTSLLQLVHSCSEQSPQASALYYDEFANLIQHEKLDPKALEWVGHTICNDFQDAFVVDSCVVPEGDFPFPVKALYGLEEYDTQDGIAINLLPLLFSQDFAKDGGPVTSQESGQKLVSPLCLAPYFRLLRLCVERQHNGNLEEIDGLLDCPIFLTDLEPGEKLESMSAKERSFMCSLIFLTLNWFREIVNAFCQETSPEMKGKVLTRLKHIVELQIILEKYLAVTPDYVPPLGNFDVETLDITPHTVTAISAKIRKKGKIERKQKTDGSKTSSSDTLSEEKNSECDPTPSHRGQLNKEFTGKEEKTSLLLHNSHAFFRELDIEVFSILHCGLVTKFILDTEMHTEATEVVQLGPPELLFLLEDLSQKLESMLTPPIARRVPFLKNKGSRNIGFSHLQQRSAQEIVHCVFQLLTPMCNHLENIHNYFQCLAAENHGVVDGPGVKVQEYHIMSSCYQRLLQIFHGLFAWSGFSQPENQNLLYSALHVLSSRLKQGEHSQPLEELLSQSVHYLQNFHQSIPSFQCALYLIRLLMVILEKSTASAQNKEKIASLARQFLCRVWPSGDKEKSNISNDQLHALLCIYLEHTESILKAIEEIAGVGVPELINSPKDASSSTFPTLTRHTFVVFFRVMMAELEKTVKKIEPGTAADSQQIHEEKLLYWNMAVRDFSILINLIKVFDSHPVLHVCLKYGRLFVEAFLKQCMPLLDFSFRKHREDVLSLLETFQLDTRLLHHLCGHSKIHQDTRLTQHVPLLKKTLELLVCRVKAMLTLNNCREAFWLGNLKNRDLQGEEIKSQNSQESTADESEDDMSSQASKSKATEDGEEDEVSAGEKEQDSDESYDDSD
UniProt P22087: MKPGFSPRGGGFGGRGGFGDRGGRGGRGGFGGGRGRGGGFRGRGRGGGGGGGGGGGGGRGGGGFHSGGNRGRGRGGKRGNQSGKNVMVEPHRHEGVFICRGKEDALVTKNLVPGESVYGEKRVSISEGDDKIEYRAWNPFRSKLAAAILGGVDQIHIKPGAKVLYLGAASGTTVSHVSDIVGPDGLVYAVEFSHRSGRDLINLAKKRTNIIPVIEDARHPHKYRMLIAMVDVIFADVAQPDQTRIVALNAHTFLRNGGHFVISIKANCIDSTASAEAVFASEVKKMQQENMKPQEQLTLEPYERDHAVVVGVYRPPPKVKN
UniProt Q52LJ0: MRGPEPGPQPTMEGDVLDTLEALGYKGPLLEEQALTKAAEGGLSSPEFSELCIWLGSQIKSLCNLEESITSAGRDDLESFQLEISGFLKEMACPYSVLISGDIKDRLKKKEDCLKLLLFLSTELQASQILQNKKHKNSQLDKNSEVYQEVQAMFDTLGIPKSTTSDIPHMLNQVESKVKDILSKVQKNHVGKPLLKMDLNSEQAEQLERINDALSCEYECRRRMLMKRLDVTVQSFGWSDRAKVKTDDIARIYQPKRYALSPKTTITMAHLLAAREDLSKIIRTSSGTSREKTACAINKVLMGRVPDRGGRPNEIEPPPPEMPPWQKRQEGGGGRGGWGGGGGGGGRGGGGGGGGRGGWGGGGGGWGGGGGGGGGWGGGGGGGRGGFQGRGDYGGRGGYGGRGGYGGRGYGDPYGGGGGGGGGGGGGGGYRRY
UniProt Q53R41: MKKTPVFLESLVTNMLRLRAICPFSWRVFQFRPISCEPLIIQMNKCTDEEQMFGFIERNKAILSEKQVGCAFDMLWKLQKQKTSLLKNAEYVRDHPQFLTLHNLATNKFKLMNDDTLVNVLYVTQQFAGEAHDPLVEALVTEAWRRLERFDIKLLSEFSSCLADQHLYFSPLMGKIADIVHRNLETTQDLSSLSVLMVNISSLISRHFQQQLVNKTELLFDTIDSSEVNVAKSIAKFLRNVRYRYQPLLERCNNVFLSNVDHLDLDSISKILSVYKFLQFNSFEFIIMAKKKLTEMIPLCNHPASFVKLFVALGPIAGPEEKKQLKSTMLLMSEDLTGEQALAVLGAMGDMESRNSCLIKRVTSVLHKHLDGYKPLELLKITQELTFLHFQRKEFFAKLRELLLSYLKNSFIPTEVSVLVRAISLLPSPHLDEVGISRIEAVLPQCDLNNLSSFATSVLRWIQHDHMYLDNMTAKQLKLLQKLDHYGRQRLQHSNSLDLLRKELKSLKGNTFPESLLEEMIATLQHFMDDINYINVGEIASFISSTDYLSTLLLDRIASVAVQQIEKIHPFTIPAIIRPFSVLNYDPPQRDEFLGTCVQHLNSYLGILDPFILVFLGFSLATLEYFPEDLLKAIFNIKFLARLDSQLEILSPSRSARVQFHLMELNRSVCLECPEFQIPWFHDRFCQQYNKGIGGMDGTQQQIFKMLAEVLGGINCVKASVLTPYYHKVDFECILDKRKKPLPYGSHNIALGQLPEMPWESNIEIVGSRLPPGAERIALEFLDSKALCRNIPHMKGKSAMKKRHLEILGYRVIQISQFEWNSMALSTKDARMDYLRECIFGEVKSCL

Compound: Cc1cc(ccc1-c1ccccc1)C(=O)N1CCCN(CC1)C(=O)CCl [compound 10]
Assay: probe-labelled cysteine peptide fold change vs DMSO (competition) (log2 fold change); higher = less target engagement (more negative = stronger competition)
Details: THP-1, incubation time: 4 h
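Further: competitive profiling in live THP-1 cells: cysteine peptides tagged with an iodoacetamide desthiobiotin (IA-DTB) probe, intensity after compound treatment relative to DMSO-treated cells.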

Which “probe-labelled cysteine peptide fold change” value (10 µM) does the source give for “FECH_P22830_360_ECGVENIR (UniProt P22830)” here?
The value was -0.132.

And the “probe-labelled cysteine peptide fold change” value (50 µM)?
Its value is 0.0461.

How did the “probe-labelled cysteine peptide fold change” value (10 µM) turn out when “FEM1B_Q9UK73_244_ADVVELLLSHADCDRR (UniProt Q9UK73)” was run?
Its value is -0.425.

And the “probe-labelled cysteine peptide fold change” value (50 µM)?
The value was -0.334.

How did the “probe-labelled cysteine peptide fold change” value (10 µM) turn out when “FBN2_P35556_682_CDCPPGLAVGMDGR (UniProt P35556)” was run?
Its value is 0.252.

What about the “probe-labelled cysteine peptide fold change” value (50 µM) of the same target?
The value was -0.0837.

What does the source list for “FAM160B1_Q5W0V3_460_LIEHCDHISDEISIMTLR (UniProt Q5W0V3)”?
probe-labelled cysteine peptide fold change (10 µM): 0.0173; probe-labelled cysteine peptide fold change (50 µM): -0.216

With “FANCL_Q9NW38_251_HPTMLPECFFLGADHVVKPLGIK (UniProt Q9NW38)” as the target, how does the “probe-labelled cysteine peptide fold change” value (10 µM) read?
Its value is -0.0209.

And the “probe-labelled cysteine peptide fold change” value (50 µM)?
Its value is -0.378.

For “FAM208A_Q9UK61_1138_HLLEPLCSDPLK (UniProt Q9UK61)”, which “probe-labelled cysteine peptide fold change” value (10 µM) is on record?
Its value is -0.279.

What about the “probe-labelled cysteine peptide fold change” value (50 µM) of the same target?
The value was -0.0561.

Which “probe-labelled cysteine peptide fold change” value (10 µM) does the source give for “FBN2_P35556_1812_AVDIDECK (UniProt P35556)” here?
The value was -0.0239.

What about the “probe-labelled cysteine peptide fold change” value (50 µM) of the same target?
The value was -0.117.

For “FASN_P49327_1448+1459_AINCATSGVVGLVNCLR (UniProt P49327)”, which “probe-labelled cysteine peptide fold change” value (10 µM) is on record?
Its value is 0.14.

And the “probe-labelled cysteine peptide fold change” value (50 µM)?
The value was -0.205.

With “FBN2_P35556_2453_DIDECK (UniProt P35556)” as the target, how does the “probe-labelled cysteine peptide fold change” value (10 µM) read?
Its value is 0.00718.

What about the “probe-labelled cysteine peptide fold change” value (50 µM) of the same target?
The value was 0.0174.

What does the source list for “FAM208A_Q9UK61_830_DYEQPTCAK (UniProt Q9UK61)”?
probe-labelled cysteine peptide fold change (10 µM): -0.312; probe-labelled cysteine peptide fold change (50 µM): -0.475

How did the “probe-labelled cysteine peptide fold change” value (10 µM) turn out when “FBXO30_Q8TB52_570_RFCPSIQGAK (UniProt Q8TB52)” was run?
Its value is 0.108.

What about the “probe-labelled cysteine peptide fold change” value (50 µM) of the same target?
Its value is -0.153.

What does the source list for “FARSB_Q9NSD9_151_LHQNICR (UniProt Q9NSD9)”?
probe-labelled cysteine peptide fold change (10 µM): -0.142; probe-labelled cysteine peptide fold change (50 µM): 0.00827

With “FANCI_Q9NVI1_156_GVLSGEECK (UniProt Q9NVI1)” as the target, how does the “probe-labelled cysteine peptide fold change” value (10 µM) read?
The value was 0.0902.

What about the “probe-labelled cysteine peptide fold change” value (50 µM) of the same target?
Its value is 0.316.

How did the “probe-labelled cysteine peptide fold change” value (10 µM) turn out when “FAM3C_Q92520_185_DNWVFCGGK (UniProt Q92520)” was run?
Its value is -0.231.

What about the “probe-labelled cysteine peptide fold change” value (50 µM) of the same target?
The value was 0.048.

With “FER_P16591_785_MSAPQHCPEDISK (UniProt P16591)” as the target, how does the “probe-labelled cysteine peptide fold change” value (10 µM) read?
The value was -0.0781.

And the “probe-labelled cysteine peptide fold change” value (50 µM)?
The value was -0.196.

What does the source list for “FANCD2_Q9BXW9_893_NSECDPTPSHR (UniProt Q9BXW9)”?
probe-labelled cysteine peptide fold change (10 µM): -0.223; probe-labelled cysteine peptide fold change (50 µM): -0.234

Which “probe-labelled cysteine peptide fold change” value (10 µM) does the source give for “FASTKD5_Q7L8L6_708_NQYCYGSR (UniProt Q7L8L6)” here?
Its value is -0.0857.

What about the “probe-labelled cysteine peptide fold change” value (50 µM) of the same target?
Its value is -0.144.

Which results are given for “FES_P07332_626_LIGVCTQK (UniProt P07332)”?
probe-labelled cysteine peptide fold change (10 µM): 0.0158; probe-labelled cysteine peptide fold change (50 µM): 0.294

What does the source list for “FBL_P22087_268_ANCIDSTASAEAVFASEVK (UniProt P22087)”?
probe-labelled cysteine peptide fold change (10 µM): 0.0798; probe-labelled cysteine peptide fold change (50 µM): 0.478

What does the source list for “FAM160A2_Q8N612_258_YIADHSYFCPVLATGLSALYSSLPR (UniProt Q8N612)”?
probe-labelled cysteine peptide fold change (10 µM): 0.23; probe-labelled cysteine peptide fold change (50 µM): -0.464

For “FAM160B1_Q5W0V3_624_CNLEAAFFEGHFLK (UniProt Q5W0V3)”, which “probe-labelled cysteine peptide fold change” value (10 µM) is on record?
Its value is -0.0187.

What about the “probe-labelled cysteine peptide fold change” value (50 µM) of the same target?
Its value is 0.238.

How did the “probe-labelled cysteine peptide fold change” value (10 µM) turn out when “FAM98C_Q17RN3_287_ADLSCLVPATSVAVR (UniProt Q17RN3)” was run?
The value was -0.194.

What about the “probe-labelled cysteine peptide fold change” value (50 µM) of the same target?
Its value is 0.101.

How did the “probe-labelled cysteine peptide fold change” value (10 µM) turn out when “FAM83H_Q6ZRV2_57_FLATEGAPDFLCPEELEHVSR (UniProt Q6ZRV2)” was run?
Its value is 0.0477.

And the “probe-labelled cysteine peptide fold change” value (50 µM)?
Its value is 0.205.

“FAM98B_Q52LJ0_220_INDALSCEYECR (UniProt Q52LJ0)” was tested. Which “probe-labelled cysteine peptide fold change” value (10 µM) did it give?
The value was 0.0797.

What about the “probe-labelled cysteine peptide fold change” value (50 µM) of the same target?
The value was -0.181.

For “FASTKD1_Q53R41_733_VDFECILDK (UniProt Q53R41)”, which “probe-labelled cysteine peptide fold change” value (10 µM) is on record?
Its value is -0.294.

And the “probe-labelled cysteine peptide fold change” value (50 µM)?
Its value is -0.226.

Which “probe-labelled cysteine peptide fold change” value (10 µM) does the source give for “FBN2_P35556_98_FHSYCCPGWK (UniProt P35556)” here?
The value was 0.221.

And the “probe-labelled cysteine peptide fold change” value (50 µM)?
Its value is 0.209.

For “FAM76B_Q5HYJ3_73_PCQYCNIIAAFIGTK (UniProt Q5HYJ3)”, which “probe-labelled cysteine peptide fold change” value (10 µM) is on record?
The value was -0.188.

What about the “probe-labelled cysteine peptide fold change” value (50 µM) of the same target?
Its value is 0.0361.

With “FAM208A_Q9UK61_149_ACLVHNELLEK (UniProt Q9UK61)” as the target, how does the “probe-labelled cysteine peptide fold change” value (10 µM) read?
The value was -0.2.

What about the “probe-labelled cysteine peptide fold change” value (50 µM) of the same target?
Its value is -1.18.

For “FASN_P49327_779_GLKPSCTIIPLMK (UniProt P49327)”, which “probe-labelled cysteine peptide fold change” value (10 µM) is on record?
The value was -0.0502.

And the “probe-labelled cysteine peptide fold change” value (50 µM)?
The value was -0.485.

Which results are given for “FANCD2_Q9BXW9_117_NCLLSCER (UniProt Q9BXW9)”?
probe-labelled cysteine peptide fold change (10 µM): -0.0291; probe-labelled cysteine peptide fold change (50 µM): -0.134

Which “probe-labelled cysteine peptide fold change” value (10 µM) does the source give for “FCHO1_O14526_113_CKEEVVSTLDAVQVLSGVSQLLPK (UniProt O14526)” here?
Its value is -0.0234.

And the “probe-labelled cysteine peptide fold change” value (50 µM)?
Its value is 0.113.

Which results are given for “FBP1_P09467_93_SSFATCVLVSEEDK (UniProt P09467)”?
probe-labelled cysteine peptide fold change (10 µM): 0.31; probe-labelled cysteine peptide fold change (50 µM): 0.163

Which “probe-labelled cysteine peptide fold change” value (10 µM) does the source give for “FAM98B_Q52LJ0_295_TACAINK (UniProt Q52LJ0)” here?
Its value is -0.0789.

And the “probe-labelled cysteine peptide fold change” value (50 µM)?
The value was -0.0032.

How did the “probe-labelled cysteine peptide fold change” value (10 µM) turn out when “FBXL12_Q9NXK8_155_QQDPTVLPLLECIVLDRVPAFR (UniProt Q9NXK8)” was run?
The value was 0.484.

What about the “probe-labelled cysteine peptide fold change” value (50 µM) of the same target?
The value was 0.391.

How did the “probe-labelled cysteine peptide fold change” value (10 µM) turn out when “FASTKD2_Q9NYY8_163_KLSEECNSLSDVLDAFSK (UniProt Q9NYY8)” was run?
Its value is -0.306.

What about the “probe-labelled cysteine peptide fold change” value (50 µM) of the same target?
The value was -0.383.

“FBXL6_Q8N531_439_WCHTLR (UniProt Q8N531)” was tested. Which “probe-labelled cysteine peptide fold change” value (10 µM) did it give?
The value was -0.202.

And the “probe-labelled cysteine peptide fold change” value (50 µM)?
Its value is -0.706.

What does the source list for “FASN_P49327_1403_KSFYGSTLFLCR (UniProt P49327)”?
probe-labelled cysteine peptide fold change (10 µM): 0.0238; probe-labelled cysteine peptide fold change (50 µM): -0.263

What does the source list for “FARSB_Q9NSD9_548_CAEIFAR (UniProt Q9NSD9)”?
probe-labelled cysteine peptide fold change (10 µM): -0.0718; probe-labelled cysteine peptide fold change (50 µM): 0.00363

How did the “probe-labelled cysteine peptide fold change” value (10 µM) turn out when “FBXO38_Q6PIJ6_303_NLHTIVLGACK (UniProt Q6PIJ6)” was run?
Its value is 0.00945.

What about the “probe-labelled cysteine peptide fold change” value (50 µM) of the same target?
Its value is -0.116.

How did the “probe-labelled cysteine peptide fold change” value (10 µM) turn out when “FCHSD2_O94868_304_DYNLQLFLQENAVFHKPQPFQFQPCDSDTSR (UniProt O94868)” was run?
The value was -0.0696.

And the “probe-labelled cysteine peptide fold change” value (50 µM)?
Its value is -0.0577.
